# PubChem BioAssay AID2685 (National Center for Advancing Translational Sciences (NCATS), 2010)
# The other results are listed elsewhere or left out. Shown are side measurements of this screen, not its main read-out; they come without a call. Most of these compounds were active or inconclusive in the main read-out, so they are no random draw. The note in brackets gives the kind of curve behind each potency; many fits are weak.
# Experiment: qHTS Assay for Lipid Storage Modulators in Drosophila S3 Cells;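 as to cell number change: cells counted by Cell Tracker Red CMTPX staining in the red channel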
# Conditions: BODIPY lipid droplet fluorescence, 18-24 h; for cell number change: measured here: cell count max response, cells fed with added oleic acid
# Outline: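 Drosophila S3 cells got compounds at several concentrations plus oleic acid (400 uM solution). Laser-scanning cytometry with 488 nm excitation read lipid droplets at 500-530 nm and cells at 575-640 nm. Percent activity was relative to 20 uM Triacsin C.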
# [1] = measured here: cell number channel AC50, cells fed with added oleic acid
# [2] = measured here: lipid fluorescence (Fed channel) AC50, cells fed with added oleic acid
SMILES,cell number change [%],AC50 [1],AC50 [2]
Cc1ccccc1C(=O)c1c[nH]c(C(=O)N2CCN(c3ccccc3F)CC2)c1,42.6,"8.2 µM [rising, single point]",
O=C(O)CCn1c(CO)nc2ccccc21,8.36,,
Cc1cccc(C)c1OCCOCCN1CCN(C)CC1,-14.1,,"0.00461 µM [falling, full curve, poor fit]"
COC(=O)c1c(C)[nH]c(C(=O)C(C)Sc2nnc(-c3cc(OC)c(OC)c(OC)c3)o2)c1C (configuration not stated),1.03,,
Cn1c(=O)n(CCc2ccccc2)c(=O)c2c1ncn2Cc1ccccc1,,"2.06 µM [rising, partial curve]","2.31 µM [rising, partial curve]"
CCN(CC)C(=O)Oc1ccc(Br)c2ccccc12,26.6,"3.66 µM [rising, full curve, poor fit]","29.1 µM [rising, single point]"
O=c1c2ccccc2nc2c3ccccc3c(NCc3ccco3)nn12,127,"0.291 µM [rising, full curve]","7.31 µM [rising, partial curve, poor fit]"
CCOC(=O)CNC(=S)n1ncnc1N,-0.662,"0.291 µM [rising, partial curve, poor fit]","0.461 µM [rising, partial curve, poor fit]"
CCOc1cc(C2C(C#N)=C(N)OC(C)=C2C(C)=O)c(Br)c(Br)c1OC(C)C (configuration not stated),-34.9,"18.4 µM [falling, single point]","29.1 µM [falling, single point]"
O=C(/C=C/c1cccc([N+](=O)[O-])c1)NCCSCc1ccccc1Cl,19.4,,
Cc1ccc([N+](=O)[O-])cc1S(=O)(=O)Nc1ccc(C(=O)NCC2CCCO2)cc1 (configuration not stated),-2.63,,"0.259 µM [falling, full curve, poor fit]"
Cc1cc(C)c(OCC(=O)NCC2COc3ccccc3O2)c(C)c1 (configuration not stated),-17.4,,
CCN(CC)CCCNC(=O)c1ccccc1NC(=O)C1=CSCCO1,-20.4,"3.66 µM [falling, single point]",
O=C(c1ccc(CNc2c(N3CCCC3)c(=O)c2=O)cc1)N1CCc2ccccc2C1,-37.5,"9.2 µM [falling, partial curve, poor fit]",
Cc1cc(=O)nc2c3ccccc3n(CC(=O)NCCCN3CCCCC3C)n12 (configuration not stated),-9.13,,
COc1ccc(Cl)cc1NC(=O)CSc1nnc(CNC(=O)c2cccs2)o1,-6.8,,
Cc1ccc(OCc2cc(C(=O)N(C)CCc3ccccn3)no2)cc1C,-43.7,"1.16 µM [falling, partial curve, poor fit]","25.9 µM [falling, partial curve, poor fit]"
O=C(COc1cc2oc(=O)cc(-c3ccccc3)c2cc1Cl)NC(Cc1c[nH]c2ccc(O)cc12)C(=O)O (configuration not stated),23.6,,"3.66 µM [rising, single point]"
CCn1c(COc2ccccc2)nnc1SCC(=O)C(C)(C)C,-20.9,,"29.1 µM [falling, single point]"

SMILES,cell number change [%],AC50 [1],AC50 [2]
Cn1cc(Cl)c(C(=O)NNC(=S)NC2CCCCC2)n1,-1.71,,"2.06 µM [rising, partial curve]"
CCN(CC)c1ccc(/C=N/NC(=O)c2c(-c3ccccc3)noc2C)cc1,20,,"2.31 µM [rising, partial curve]"
CCCNC(=O)CS(=O)(=O)Cc1nc(-c2cccc(OC)c2)oc1C,,"6.51 µM [rising, single point]",
C=CCn1c(SCC(=O)Nc2c(C)cccc2C)nnc1-c1ccncc1,,,"1.64 µM [rising, partial curve]"
COc1ccc(CNC(=O)CCN2C(=O)c3ccccc3C2=O)cc1OC,14.5,"0.116 µM [rising, full curve, poor fit]","1.16 µM [rising, full curve]"
COCCn1c(SCC(=O)NCc2ccc3c(c2)OCO3)nc2ccccc2c1=O,23.8,"3.66 µM [rising, single point]",
O=C(N/N=C/c1cccc(OC(=O)c2ccccc2Cl)c1)c1cccnc1,-37.1,"14.6 µM [falling, single point]",
C=CCN(Cc1nc(-c2ccc(OC)cc2)no1)C(=O)c1ccc2c(c1)OCO2,-4.58,,"1.16 µM [falling, single point]"
O=C(CCN1C(=O)/C(=C/c2ccccc2F)SC1=S)NCCCn1ccnc1,-56.8,,"29.1 µM [falling, single point]"
CCCOc1ccc(C(=O)NNC(=O)CCNC(=O)c2ccco2)cc1OC,125,"29.1 µM [rising, single point]","0.184 µM [rising, full curve]"
O=C(CSc1nnc(Nc2ccccc2)s1)NCc1ccco1,-13.7,,"7.31 µM [rising, single point]"
COc1cc(CNC2CCCC2)cc(Cl)c1OCc1ccccc1Cl,-46.3,"8.2 µM [falling, partial curve]","7.31 µM [falling, partial curve, poor fit]"
O=C1C2C3C=CC(C3)C2C(=O)N1c1ccc2c(c1)CCC2 (configuration not stated),31.9,"2.31 µM [rising, full curve, poor fit]","4.61 µM [rising, partial curve, poor fit]"
CC(C)(C)NC(=O)C(c1ccc(F)cc1)N(Cc1ccco1)C(=O)CCC(=O)Nc1ccccn1 (configuration not stated),-2.86,,
CN(C)S(=O)(=O)c1cccc(NC(=O)COC(=O)C2(c3ccccc3F)CCCC2)c1,,,"9.2 µM [falling, partial curve]"
COc1ccc(OC)c(CCNC(=O)CCn2ccc3cc(S(=O)(=O)N4CCCC4)ccc32)c1,-0.33,,
CCN1c2ccccc2N(C)C1(C)c1ccccc1 (configuration not stated),-53.6,"13 µM [falling, partial curve]","11.6 µM [falling, partial curve]"
O=C(NCc1ccc(Cl)cc1)C(=O)c1c[nH]c2ccccc12,-12.4,,

# Random excerpt: two compounds from above, in no set order.
SMILES,cell number change [%],AC50 [1],AC50 [2]
CN(C)S(=O)(=O)c1cccc(NC(=O)COC(=O)C2(c3ccccc3F)CCCC2)c1,,,"9.2 µM [falling, partial curve]"
CCN1c2ccccc2N(C)C1(C)c1ccccc1 (configuration not stated),-53.6,"13 µM [falling, partial curve]","11.6 µM [falling, partial curve]"
